Assay results reported in article doi:10.1101/2025.02.12.637814.

The chains behind the UniProt entries cited, without tags or fusion partners. Where a name states a change or a piece, a line headed by the entry shows the natural chain unless it says otherwise.
UniProt Q5SMQ9: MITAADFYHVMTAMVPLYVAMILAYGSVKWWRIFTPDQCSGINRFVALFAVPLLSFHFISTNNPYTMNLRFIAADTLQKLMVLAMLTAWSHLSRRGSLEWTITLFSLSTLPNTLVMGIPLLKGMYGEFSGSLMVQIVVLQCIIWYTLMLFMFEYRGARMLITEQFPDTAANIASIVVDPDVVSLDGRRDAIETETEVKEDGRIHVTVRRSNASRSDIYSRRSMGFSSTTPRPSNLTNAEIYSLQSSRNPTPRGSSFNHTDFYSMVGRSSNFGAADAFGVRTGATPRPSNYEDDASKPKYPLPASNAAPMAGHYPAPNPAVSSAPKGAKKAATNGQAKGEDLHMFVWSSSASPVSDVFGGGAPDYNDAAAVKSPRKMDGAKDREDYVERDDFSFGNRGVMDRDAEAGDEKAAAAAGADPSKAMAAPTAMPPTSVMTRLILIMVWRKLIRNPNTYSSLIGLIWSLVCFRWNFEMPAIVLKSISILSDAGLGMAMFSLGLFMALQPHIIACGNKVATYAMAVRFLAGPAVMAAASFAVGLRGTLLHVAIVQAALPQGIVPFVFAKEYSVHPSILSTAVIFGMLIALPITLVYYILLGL

Legend:
[1] = molecular target: hydrophilic loop (HL) domain of wild-type PIN1A, 6X-His tagged (rice) (UniProt Q5SMQ9); assay: pull-down
[2] = molecular target: hydrophilic loop (HL) domain of wild-type PIN1A, BiFC construct (rice) (UniProt Q5SMQ9); assay: split reporter

- binding [1]: binds
B1: MAP Kinase 3 (MPK3), protein used in the in vitro pull-down (enzyme, UniProt Q10N20 1-369)
chain: MDGAPVAEFRPTMTHGGRYLLYDIFGNKFEVTNKYQPPIMPIGRGAYGIVCSVMNFETREMVAIKKIANAFNNDMDAKRTLREIKLLRHLDHENIIGIRDVIPPPIPQAFNDVYIATELMDTDLHHIIRSNQELSEEHCQYFLYQILRGLKYIHSANVIHRDLKPSNLLLNANCDLKICDFGLARPSSESDMMTEYVVTRWYRAPELLLNSTDYSAAIDVWSVGCIFMELINRQPLFPGRDHMHQMRLITEVIGTPTDDELGFIRNEDARKYMRHLPQYPRRTFASMFPRVQPAALDLIERMLTFNPLQRITVEEALDHPYLERLHDIADEPICLEPFSFDFEQKALNEDQMKQLIFNEAIEMNPNIRY

- binding [2]: binds
B2: MAP Kinase 3 (MPK3), BiFC construct (enzyme, UniProt Q10N20 1-369)
chain: B1 chain

No constants are given. Whether binding was seen depends on the method and setting. Binding seen in cells or lysates may run through a third protein. Binding calls can cover weak binding; strength is not graded here. Each block holds one binder with its values, some of them ahead of it.
